About 4,300 (3.1%) of roughly 140,000 compounds were called active. Inconclusive means that the source gave no clear call. Such entries were picked first, then a sample of the others.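 How the source made its calls: active means readout at or below -70, meaning at least 70% loss of cells showing the perinucleolar compartment, a nuclear body marking cancer cells; inconclusive means readout between -30 and a set limit; inactive means the rest.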
Test: High Content Assay for Compounds that inhibit the Assembly of the Perinucleolar Compartment;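 further: plate controls were DMSO wells for no effect and camptothecin positive control wells for full effect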
Details: PC3M PTB-GFP, PNC prevalence imaging, 16 h; at 10 µM; active compounds read low
In short: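 PC3M cells stably expressing PTB-GFP, 750–1000 cells/well, treated 16 h at 37 °C with compound (23 nl of library stock), in duplicate. After paraformaldehyde fixation and Hoechst stain, imaged at 20x; PNC prevalence scored by image analysis.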
With CC(=O)N1c2ccccc2C(=O)C1N1CCCCC1 (stereo unspecified) the activity change (PNC), negative = inhibition was inconclusive: -55.4%.
With COc1cccc(-c2cc(C(=O)N3CCN(C(c4ccccc4)c4ccccc4)CC3)no2)c1 the activity change (PNC), negative = inhibition was inconclusive: -34.7%.
With O=C(O)CCCCNCc1ccccc1 the activity change (PNC), negative = inhibition was inactive: -12.9%.
For O=C(NCCc1ccccc1)c1ccnc(/C=N/O)c1, the activity change (PNC), negative = inhibition was inconclusive: -32.4%.
In the case of Cn1c(N)c(C(=O)COC(=O)c2cc(-c3ccco3)nc3ccccc23)c(=O)n(Cc2ccccc2)c1=O, the activity change (PNC), negative = inhibition is reported as inconclusive: -34.3%.
For CCOc1ccc(C(CC(=O)O)NC(=O)c2sc3ccccc3c2Cl)cc1 (stereo unspecified), the activity change (PNC), negative = inhibition was inconclusive: -57.9%.
For CS(=O)(=O)Nc1ccc(Br)cc1C(=O)c1ccccc1, the activity change (PNC), negative = inhibition was active: -83.7%.
For N#Cc1c(N)nc(SCc2ccccc2)c(C#N)c1-c1ccco1, the activity change (PNC), negative = inhibition was inconclusive: -57.9%.
For Cc1ccc(CNS(=O)(=O)c2ccc(C(C)(C)C)cc2)n1C, the activity change (PNC), negative = inhibition was inactive: 37.6%.
In the case of CCOC(=O)c1c(NC(=O)CN2CCOCC2)sc2c1CCCC2=O, the activity change (PNC), negative = inhibition is reported as inactive: -12.5%.
In the case of CCCC(C)C(=O)Nc1ccc2c(c1)OCCO2 (stereo unspecified), the activity change (PNC), negative = inhibition is reported as inconclusive: -58.5%.
In the case of COC(=O)c1ccc(S(=O)(=O)N2CCCCC2)o1, the activity change (PNC), negative = inhibition is reported as inconclusive: -49.4%.
With O=C(CCNC(=O)Cn1ccc2ccccc2c1=O)NCCN1CCc2ccccc2C1 the activity change (PNC), negative = inhibition was inconclusive: -71%.
With CC(C)(O)c1cc(=O)sc2nc3ccccc3n12 the activity change (PNC), negative = inhibition was active: -100%.
In the case of Cc1ccc(OC(=O)c2ccc(N3CCOCC3)c([N+](=O)[O-])c2)cc1, the activity change (PNC), negative = inhibition is reported as inconclusive: -55.2%.
With NS(=O)(=O)c1ccc(CCNC(=O)c2cccnc2)cc1 the activity change (PNC), negative = inhibition was active: -100%.
For O[C@@H](CNC[C@H](O)c1ccccc1)c1ccccc1, the activity change (PNC), negative = inhibition was active: -100%.
With Cc1nc2cc3c(cc2c(C)c1C(=O)OC(C)C)OCO3 the activity change (PNC), negative = inhibition was inactive: 42.6%.
In the case of O=C1CS/C(=N\c2ccccn2)N1C1CCCCC1, the activity change (PNC), negative = inhibition is reported as inconclusive: -42.4%.
With Cc1ccc(NC(=O)c2ccc(CNc3c(N4CCOCC4)c(=O)c3=O)cc2)cc1 the activity change (PNC), negative = inhibition was inconclusive: -32.2%.
For CCn1c(SCC(=O)c2ccc(O)c(O)c2)nnc1-c1ccc(C)cc1, the activity change (PNC), negative = inhibition was inactive: -18.9%.
In the case of O=C(CN1CCCCCC1)Nc1ccc(F)c(F)c1F, the activity change (PNC), negative = inhibition is reported as inconclusive: -30.2%.
With O=C(CN1CCN(S(=O)(=O)c2ccccc2)CC1)NC(=O)NC1CCCCC1 the activity change (PNC), negative = inhibition was inconclusive: -48.4%.
In the case of O=C(NCCCn1ccnc1)c1cc(-c2ccc3c(c2)OCO3)on1, the activity change (PNC), negative = inhibition is reported as active: -91.4%.
In the case of CCOC(=O)c1cnc2ccc(C)cc2c1OCc1cc(F)cc(F)c1, the activity change (PNC), negative = inhibition is reported as inactive: 5.38%.
In the case of COc1ccc(C(C)=O)cc1CSc1nc2ccccc2c(=O)n1-c1ccccc1, the activity change (PNC), negative = inhibition is reported as inconclusive: -45.6%.
In the case of O=C(CN1C(=O)S/C(=C\C=C\c2ccccc2)C1=O)Nc1ccc(O)cc1, the activity change (PNC), negative = inhibition is reported as inactive: -0.0763%.
With CCC(=O)Nc1ccccc1C(=O)NC1CCCCC1 the activity change (PNC), negative = inhibition was inconclusive: -57.4%.
In the case of CN(C)c1nc(Oc2ccc(N)cc2)nc(N(C)C)n1, the activity change (PNC), negative = inhibition is reported as inconclusive: -69.6%.
With CCOc1cc(C#N)c(NC(=O)c2cccnc2)cc1OCC the activity change (PNC), negative = inhibition was inconclusive: -65.5%.
For Cc1cccc(N2CCN(C(=O)c3cc4n(n3)C(C(F)(F)F)CC(c3ccco3)N4)CC2)c1C (stereo unspecified), the activity change (PNC), negative = inhibition was inactive: 42.3%.
With CCn1c(SCC(=O)Nc2nc3c(s2)CCCC3)nnc1-c1ccccc1 the activity change (PNC), negative = inhibition was inconclusive: -31.7%.
For NC(=O)CSc1ncnc2c1oc1ccccc12, the activity change (PNC), negative = inhibition was inactive: 23.5%.
In the case of O=c1cc(-c2ccccc2)nc2nc(-c3ccco3)[nH]n12, the activity change (PNC), negative = inhibition is reported as active: -117%.
For CN1/C(=C/C2CC(=O)N(c3ccc([N+](=O)[O-])cc3)C2=O)C(C)(C)c2ccccc21 (stereo unspecified), the activity change (PNC), negative = inhibition was inconclusive: -62.5%.
In the case of Cc1nc(N)c(C#N)c(-c2cccnc2)c1C, the activity change (PNC), negative = inhibition is reported as inconclusive: -62.9%.
With CC(=O)c1cc2c(cc1N/C(=N/S(=O)(=O)c1ccccc1)c1ccc(Cl)cc1)OCO2 the activity change (PNC), negative = inhibition was inconclusive: -62.8%.
In the case of COc1ccc(NC(=O)c2cccc(S(=O)(=O)Nc3ccc(Br)cc3)c2)cn1, the activity change (PNC), negative = inhibition is reported as inconclusive: -33%.
For Cc1cc(C(=O)OCC(=O)c2cccc([N+](=O)[O-])c2)c2ccccc2n1, the activity change (PNC), negative = inhibition was inconclusive: -34.6%.
With Cc1cc(C)nc(N(C#N)C(C)C(=O)N(C)C)n1 (stereo unspecified) the activity change (PNC), negative = inhibition was inconclusive: -59.3%.
For Cc1nc(CN2CCN(C(=O)c3ccc(Br)cc3)CC2)cs1, the activity change (PNC), negative = inhibition was inconclusive: -53.5%.
In the case of COCCOC(=O)c1c(C)oc2cc(Br)c(OCC(N)=O)cc12, the activity change (PNC), negative = inhibition is reported as inactive: -7.11%.
For O=C(CSCc1ccc([N+](=O)[O-])cc1)NC1CC2CCC1C2 (stereo unspecified), the activity change (PNC), negative = inhibition was inconclusive: -53.4%.
With COc1cc(C(=O)N2CCN(Cc3ccccc3C(F)(F)F)CC2)cc(OC)c1OC the activity change (PNC), negative = inhibition was inconclusive: -34.7%.
With CCOC(=O)c1c(CN2CCCCC2)oc2ccc(OC)cc12 the activity change (PNC), negative = inhibition was inconclusive: -32.5%.
In the case of O=C1CC(SC(=NCc2ccc3c(c2)OCO3)Nc2ccccc2)C(=O)N1 (stereo unspecified), the activity change (PNC), negative = inhibition is reported as active: -115%.

From PubChem BioAssay AID2417 (National Center for Advancing Translational Sciences (NCATS), 2010)
